# Experimental data from PubChem BioAssay AID504327 (National Center for Advancing Translational Sciences (NCATS), 2011).
# Protein sequences, listed by entry. Tags and fused reporters are not part of them.
# UniProt Q92830, whole entry, looked up: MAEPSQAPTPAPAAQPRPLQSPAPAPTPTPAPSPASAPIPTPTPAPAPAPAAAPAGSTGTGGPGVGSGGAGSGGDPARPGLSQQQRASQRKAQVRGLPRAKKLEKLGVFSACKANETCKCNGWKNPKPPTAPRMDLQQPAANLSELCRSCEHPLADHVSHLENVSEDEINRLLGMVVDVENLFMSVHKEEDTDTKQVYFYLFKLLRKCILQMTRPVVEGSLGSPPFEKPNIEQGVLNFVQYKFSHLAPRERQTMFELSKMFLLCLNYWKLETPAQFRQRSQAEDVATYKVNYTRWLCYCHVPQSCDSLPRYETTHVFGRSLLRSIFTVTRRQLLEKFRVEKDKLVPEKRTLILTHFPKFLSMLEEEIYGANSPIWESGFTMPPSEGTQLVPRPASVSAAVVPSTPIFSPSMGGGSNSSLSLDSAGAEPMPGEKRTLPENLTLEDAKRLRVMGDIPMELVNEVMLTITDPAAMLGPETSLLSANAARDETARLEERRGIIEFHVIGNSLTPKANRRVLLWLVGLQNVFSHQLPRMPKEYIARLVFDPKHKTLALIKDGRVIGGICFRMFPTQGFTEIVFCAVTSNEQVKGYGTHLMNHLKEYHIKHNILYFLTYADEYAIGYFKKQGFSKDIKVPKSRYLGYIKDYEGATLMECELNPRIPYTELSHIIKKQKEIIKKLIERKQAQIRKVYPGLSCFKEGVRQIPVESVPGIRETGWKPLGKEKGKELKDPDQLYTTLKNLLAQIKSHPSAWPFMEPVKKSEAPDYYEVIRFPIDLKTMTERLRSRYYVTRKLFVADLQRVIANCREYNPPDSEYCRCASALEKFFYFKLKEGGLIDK
# The whole screen tested about 390,000 compounds, of which about 820 (0.21%) were called active. Inconclusive means that the source gave no clear call. Such entries were picked first, then a sample of the others. Calls follow the shape of the dose curve; as a rule, active = well fitted inhibition curve with a large enough effect; inconclusive = small, poorly fitted or top-dose-only effect, or another doubt; inactive = no such curve, though single readings can be large or run the other way. Potencies of inconclusive entries are doubtful fits and often do not repeat.
# Target: Histone acetyltransferase KAT2A (Homo sapiens) (UniProt Q92830)
# Assay: qHTS Assay for Inhibitors of GCN5L2
# Settings: GCN5L2 HAT assay, ThioGlo1 CoA-SH fluorescence; activity change, negative = inhibition: at 58.9 µM (top of the series) unless noted
# Summary of the method: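 Preincubate 20nM GCN5L2 with compound 15 min, RT → add 50uM ThioGlo1 + 75uM H3(1-25) + 70uM acetyl-CoA → read fluorescence 0 and 20 min. Primary qHTS; fluorescent artifacts likely.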
# % is scaled to controls: 0 for no effect and ±100 for the full control effect; potency is read from the fitted curve at half-maximal effect.
SMILES,Potency,"activity change, negative = inhibition"
COc1cc(/C=N/NC(=O)c2cccc3ccccc23)cc(OC)c1OC,"inconclusive: 39.8 µM [inhibitor, single point]",–
Cc1cccc(NC(=O)CSc2nnc(-c3cnccn3)n2Cc2ccco2)c1,"inconclusive: 0.501 µM [inhibitor, single point]",–
O=[N+]([O-])c1cc(Br)c2nsnc2c1N1CCOCC1,"inconclusive: 0.141 µM [inhibitor, full curve, poor fit]",–
CCN1/C(=C/C=C/C=C/c2sc3ccccc3[n+]2CC)Sc2ccccc21,"inconclusive: 31.6 µM [inhibitor, partial curve]",–
COc1ccc(-c2cc3c(=O)n(CC(=O)NC4CCN(Cc5ccccc5)CC4)ncn3n2)cc1,"inconclusive: 6.31 µM [inhibitor, single point]",–
CCOC(=O)c1nc2sc3c(c2c(=O)[nH]1)CCC(C)C3 (stereo not given),"inconclusive: 0.501 µM [inhibitor, single point]",–
CC(C)Cn1c(=O)n(C)c(=O)c2[nH]cnc21,"inconclusive: 39.8 µM [inhibitor, single point]",–
O=C(COC(=O)c1cccc(S(=O)(=O)N2CCCCC2)c1)NCc1ccccc1,"inconclusive: 14.1 µM [inhibitor, partial curve]",–
COc1cc(-c2noc(C)c2C#Cc2ccsc2)cc(OC)c1OC,"inconclusive: 0.794 µM [inhibitor, full curve, poor fit]",–
Cc1sc(NC(=O)C2CCCCC2C(=O)O)c(C(N)=O)c1-c1ccc(C(C)(C)C)cc1 (stereo not given),–,inactive: -11.7%
CN(C)c1ncc2ncc(=O)n(Cc3cccs3)c2n1,–,inactive: -13.5%
Cc1sc2nc(-c3cccs3)oc(=O)c2c1C,"inconclusive: 7.08 µM [inhibitor, single point]",–
Cc1ccc(-c2csc3ncnc(SCc4ccc(C(=O)O)cc4)c23)cc1,"inconclusive: 35.5 µM [inhibitor, single point]",–
COc1cc(/C=C2\Oc3cc(O)ccc3C2=O)ccc1O,"inconclusive: 39.8 µM [inhibitor, single point]",–
CCc1c(C)sc(NC(=O)c2ccoc2C)c1C(N)=O,"inconclusive: 25.1 µM [inhibitor, partial curve]",–
COc1ccc(-c2c3c(cc4ncn(Cc5ccccc5)c24)COC3=O)cc1,"inconclusive: 35.5 µM [inhibitor, single point]",–
CCCCCCCNC(=O)C1(CC2CC(c3ccc(Cl)cc3)=NO2)CCN(C(=O)CCCCCBr)CC1 (stereo not given),–,inactive: 0.949%
O=C(Cn1cc(C(F)(F)F)ccc1=O)N1CCN(S(=O)(=O)c2ccccc2)CC1,"inconclusive: 22.4 µM [inhibitor, single point]",–
Cn1c(CNC(=O)c2ccc(F)cc2)nc2ccccc21,"inconclusive: 15.8 µM [inhibitor, partial curve]",–
Fc1ccc(Br)cc1SCCc1ccncc1,"inconclusive: 44.7 µM [inhibitor, single point]",–
O=C(CSc1ncnc2nc[nH]c12)c1ccc(Cl)cc1,"inconclusive: 39.8 µM [inhibitor, single point]",–
CCOC(=O)CSc1n[nH]c(=S)s1,active: 25.1 µM,–
CCCCOc1ccc(S(=O)(=O)NCc2csc(C)n2)cc1,–,inactive: -12.6%

SMILES,Potency,"activity change, negative = inhibition"
Nc1nc(N2CCN(C/C=C/c3ccccc3)CC2)nc2ccccc12,"inconclusive: 1.26 µM [inhibitor, full curve, poor fit]",–
Cc1ccc(-c2nc(CS(=O)(=O)CC(=O)N3CCc4ccccc4C3)c(C)o2)cc1,–,inactive: -3.31%
COc1ccc2c(Cl)c(C(=O)NCCCn3ccnc3)sc2c1,"inconclusive: 39.8 µM [inhibitor, single point]",–
Cc1ccccc1NS(=O)(=O)c1nnc(NC(=O)c2ccccc2F)s1,"inconclusive: 11.2 µM [inhibitor, partial curve]",–
O=C(NCCCN1CCOCC1)c1ccc2c(c1)N(Cc1ccc(F)cc1)CCS2,"inconclusive: 39.8 µM [inhibitor, single point]",–
COc1ccc(NC(=O)C2=CC(c3ccc(C)cc3)=NS(=O)(=O)N2C)cc1OC,"inconclusive: 35.5 µM [inhibitor, single point]",–
COc1cccc(-c2nc(-c3ccc4c(c3)-c3ccccc3S4(=O)=O)c(-c3ccccc3)[nH]2)c1OC,"inconclusive: 28.2 µM [inhibitor, single point]",–
Cc1ccc2c(c1)C(=C(C#N)C#N)C(=O)N2CCN1CCCCC1,"inconclusive: 14.1 µM [inhibitor, partial curve, poor fit]",–
CS(=O)(=O)c1ccc(NC(=O)C2CC(=O)N(c3ccc4c(c3)OCCO4)C2)cc1 (stereo not given),"inconclusive: 1.58 µM [inhibitor, partial curve]",–
CC1CC(C)CN(C(=O)CSc2nnc(-c3ccc(Cl)cc3)o2)C1 (stereo not given),–,inactive: -2.89%
O=C(N/C(=C\c1ccc([N+](=O)[O-])cc1)C(=O)N1CCCCC1)c1ccc(Br)o1,"inconclusive: 7.08 µM [inhibitor, full curve, poor fit]",–
C=CCOc1c(CNc2ccc(S(N)(=O)=O)cc2)cccc1OC,–,inactive: -3.74%
Cc1nn2c(=S)[nH]nc2[nH]c1=O,"inconclusive: 31.6 µM [inhibitor, single point]",–
Cc1nn(-c2ccccc2)c(N2CCCC2)c1/C=N/Nc1ccc(S(N)(=O)=O)cc1[N+](=O)[O-],–,inactive: -12.7%
CC(=O)N1CCN(CC(=O)Nc2cc([N+](=O)[O-])ccc2Cl)CC1,–,inactive: -6.31%
Nc1nc(=S)n(-c2ccccc2)[nH]1,"inconclusive: 35.5 µM [inhibitor, single point]",–
CCSC1=C(C#N)C2(CCCC2)C(C#N)=C(N)N1,–,inactive: -2.94%
CC1(C)CC(=O)C(C=NCC(N)=O)=C(O)C1,"inconclusive: 0.631 µM [inhibitor, single point]",–
CC1(C)C=Cc2cc3ccc(=O)oc3cc2O1,inactive,–
Cc1ccc(CN2CCC(C(=O)Nc3ccc(Oc4cccnc4)cc3)CC2)cc1,–,inactive: -17.8%
NCCOB(c1ccccc1)c1ccccc1,"inconclusive: 31.6 µM [inhibitor, single point]",–
O=C(CSc1nnc(-c2ccc(Cl)cc2)n1Cc1ccco1)c1cccs1,–,inactive: -8.29%
